Melanoma cell counts after drug treatment

Data from the primary screen of doi:10.1371/journal.pone.0140310, rounded.

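Human melanoma cell lines in 1,536-well plates were treated with a pair of drugs for 72 h, then fixed, stained and imaged. Each value is the count of nuclei relative to DMSO-treated wells, in %, so that 100 equals the control. Concentrations were fixed for each drug; these are the lower of two levels, a fifth of the higher. These are primary screening values without error estimates.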
An unselected part of the screen is shown.
A dash means that no value is listed here.

Drug key:
GW9662 (2 µM): O=C(Nc1ccccc1)c1cc([N+](=O)[O-])ccc1Cl
enzastaurin (0.8 µM): Cn1cc(C2=C(c3cn(C4CCN(Cc5ccccn5)CC4)c4ccccc34)C(=O)NC2=O)c2ccccc21
NVP-TAE684 (0.08 µM): COc1cc(N2CCC(N3CCN(C)CC3)CC2)ccc1Nc1ncc(Cl)c(Nc2ccccc2S(=O)(=O)C(C)C)n1
selumetinib (0.015 µM): Cn1cnc2c(F)c(Nc3ccc(Br)cc3Cl)c(C(=O)NOCCO)cc21
A-769662 (2 µM): N#Cc1c(O)c2c(-c3ccc(-c4ccccc4O)cc3)csc2[nH]c1=O
gemcitabine (0.0004 µM): Nc1ccn([C@@H]2O[C@H](CO)[C@@H](O)C2(F)F)c(=O)n1
erlotinib (0.8 µM): C#Cc1cccc(Nc2ncnc3cc(OCCOC)c(OCCOC)cc23)c1
docetaxel (0.0001 µM): CC(=O)O[C@@]12CO[C@@H]1C[C@H](O)[C@@]1(C)C(=O)[C@H](O)C3=C(C)[C@@H](OC(=O)[C@H](O)[C@@H](NC(=O)OC(C)(C)C)c4ccccc4)C[C@@](O)([C@@H](OC(=O)c4ccccc4)[C@H]21)C3(C)C
ABT-263 (0.4 µM): CC1(C)CCC(c2ccc(Cl)cc2)=C(CN2CCN(c3ccc(C(=O)NS(=O)(=O)c4ccc(N[C@H](CCN5CCOCC5)CSc5ccccc5)c(S(=O)(=O)C(F)(F)F)c4)cc3)CC2)C1
dasatinib (0.004 µM): Cc1nc(Nc2ncc(C(=O)Nc3c(C)cccc3Cl)s2)cc(N2CCN(CCO)CC2)n1

Drugs,COLO 829,A375,LB2518-MEL,IPC-298,MEL-HO,COLO 800,C32,COLO 792,501mel,LOX IMVI,A101D,A2058,IST-MEL1,G-361
dasatinib + NVP-TAE684,62.0,70.4,96.7,97.6,70.0,58.2,68.2,55.6,93.7,47.2,82.2,66.6,80.8,85.0
enzastaurin + selumetinib,131,66.9,59.6,63.4,93.7,79.9,101,81.0,-,129,88.8,93.9,97.0,88.0
GW9662 + NVP-TAE684,85.1,90.1,99.9,96.8,79.4,89.9,95.3,101,86.9,98.7,102,98.0,98.0,106
erlotinib + docetaxel,47.5,24.1,59.9,51.2,58.4,36.5,68.3,32.0,-,60.6,53.4,9.4,50.8,21.3
dasatinib + ABT-263,77.3,70.4,84.0,96.8,62.7,71.0,67.6,34.0,-,30.8,47.1,82.0,69.6,70.5
selumetinib + docetaxel,88.7,31.7,59.6,52.2,62.8,32.0,69.7,44.5,-,81.0,77.1,21.5,72.0,29.2
erlotinib + enzastaurin,119,98.3,104,101,108,160,91.3,88.6,-,44.6,86.3,117,97.7,79.0
gemcitabine + selumetinib,114,72.7,70.9,66.9,81.4,175,98.6,77.8,-,143,81.9,97.0,79.2,60.7
ABT-263 + enzastaurin,121,53.7,80.9,112,90.7,71.5,51.5,53.6,-,23.7,56.7,106,78.1,85.9
docetaxel + NVP-TAE684,55.1,-,72.6,59.1,61.2,42.7,78.1,39.1,69.3,64.6,74.2,9.3,63.0,25.5
dasatinib + docetaxel,35.9,31.2,75.7,58.4,53.0,31.8,54.9,28.4,-,42.2,44.4,7.0,43.8,18.5
gemcitabine + enzastaurin,115,92.0,103,95.5,89.4,79.7,107,91.8,-,104,105,98.0,89.9,105
erlotinib + A-769662,111,90.6,90.0,100,105,93.4,105,87.2,96.9,98.9,105,85.3,98.8,103
NVP-TAE684 + enzastaurin,117,-,108,102,96.2,70.8,102,103,74.0,69.6,96.8,88.6,110,95.7
GW9662 + docetaxel,50.7,-,58.8,70.2,85.6,28.0,85.5,40.5,65.1,54.7,70.4,15.6,72.3,26.4
GW9662 + dasatinib,87.4,84.3,93.0,93.6,80.0,103,82.7,65.1,96.7,176,90.3,80.6,92.1,80.0
gemcitabine + erlotinib,90.0,78.1,-,82.4,79.6,84.0,102,66.0,-,104,94.4,86.0,73.5,84.5
gemcitabine + ABT-263,96.4,59.1,78.1,84.4,64.6,52.1,45.3,57.2,-,44.4,53.8,94.9,58.7,74.9
GW9662 + erlotinib,88.1,75.0,83.7,82.5,85.4,91.3,90.5,93.2,88.0,108,90.6,93.3,92.1,106
erlotinib + ABT-263,89.9,90.9,95.2,93.6,79.5,59.9,62.1,43.2,-,60.4,46.6,98.1,75.8,77.8
GW9662 + gemcitabine,93.9,-,-,78.5,72.6,88.8,96.5,107,-,74.8,91.1,91.2,65.8,93.4
dasatinib + enzastaurin,85.6,96.5,92.0,104,78.3,63.0,79.8,83.0,-,80.4,78.6,83.7,83.9,91.3
erlotinib + NVP-TAE684,69.9,56.5,106,92.5,91.7,86.8,83.6,83.9,73.7,96.8,93.6,93.5,106,94.6
selumetinib + NVP-TAE684,99.6,-,-,71.3,81.4,130,79.1,82.3,-,123,86.7,101,102,94.3
dasatinib + selumetinib,98.0,62.8,48.5,66.7,83.7,68.6,80.4,54.1,-,87.1,82.1,97.0,83.6,58.8
A-769662 + gemcitabine,104,-,98.6,82.7,78.2,94.1,107,101,102,110,100,89.8,73.2,88.3
selumetinib + A-769662,113,-,70.3,68.0,82.2,112,83.2,88.7,-,143,92.0,104,94.6,100
docetaxel + enzastaurin,45.0,21.7,-,66.5,73.4,58.0,106,55.2,-,65.1,62.4,16.3,69.5,33.7
GW9662 + A-769662,99.7,100,109,101,103,72.9,96.6,104,81.4,81.1,87.5,97.4,103,94.5

Some entries from above, unchanged:

| Drugs | COLO 829 | A375 | LB2518-MEL | IPC-298 | MEL-HO | COLO 800 | C32 | COLO 792 | 501mel | LOX IMVI | A101D | A2058 | IST-MEL1 | G-361 |
|---|---|---|---|---|---|---|---|---|---|---|---|---|---|---|
| gemcitabine + erlotinib | 90.0 | 78.1 | - | 82.4 | 79.6 | 84.0 | 102 | 66.0 | - | 104 | 94.4 | 86.0 | 73.5 | 84.5 |
| GW9662 + erlotinib | 88.1 | 75.0 | 83.7 | 82.5 | 85.4 | 91.3 | 90.5 | 93.2 | 88.0 | 108 | 90.6 | 93.3 | 92.1 | 106 |
| NVP-TAE684 + enzastaurin | 117 | - | 108 | 102 | 96.2 | 70.8 | 102 | 103 | 74.0 | 69.6 | 96.8 | 88.6 | 110 | 95.7 |
| GW9662 + gemcitabine | 93.9 | - | - | 78.5 | 72.6 | 88.8 | 96.5 | 107 | - | 74.8 | 91.1 | 91.2 | 65.8 | 93.4 |